Reference: patent US8299238B2, “Steroidogenesis modified cells and methods for screening for endocrine disrupting chemicals” (University of Saskatchewan, priority 2009, dated 2012)
At least one compound was matched to its structure with a doubt left.

Experiments:
H295R cells [1] = conditions: H295R cells (parental or unmodified); cited from earlier work
H295R cells [2] = test: Chemical exposure, steroid production in unaltered H295R cells; assay type: cell-based, human; conditions: 48 h
Description: (§1) For instrumental detection of steroids, culture medium samples were extracted by ethyl acetate/hexane (v/v, 50/50) followed by LC-MS/MS analysis. […] C-d4 was provided by Cambridge (Andover, Mass., USA), other labelled standards were provided by C/D/N Isotope (Pointe-Claire, Quebec, Canada). Test chemicals (e.g. test substances) were obtained from Sigma. […] For all other hormones, chromatography was performed using a nano-pure water and methanol. Sample extract was separated by a 100 mm×2.1 mm Thermo Scientific Betasil C18 column (5 μm pore size) and then analyzed by a triple quadrapole tandem mass spectrometer (Waters, USA). All data were acquired and processed with Analyst Software, Ver. 1.4.1 (ABI-Sciex).
(§2) Cells were exposed to model chemicals in 24-well cell culture plates (COSTAR, Bucks, UK). One ml of cell suspension was added to each well and cells cultured for 24 to 48 h. Cells were exposed to chemicals dissolved in dimethyl sulfoxide (DMSO; Sigma-Aldrich, St. Louis, Mo.). Forskolin (FOR) was obtained from Sigma Chemical Co. (St. Louis, Mo., USA) and Prochloraz (PRO) was purchased from Aldrich (St. Louis, Mo., USA). The culture medium was collected from each well after 48 h and stored at −80° C. until further measurement.

H295R/CYP21A2-KD cells = test: Chemical exposure, steroid production in H295R/CYP21A2-KD cells; assay type: cell-based, human; conditions: 48 h
Description: as §1, §2

| Structure (SMILES) | Effect type: estradiol (E2) production (H295R cells [1]) | Effect type: testosterone (T) production (H295R cells [1]) | Effect on production of E1 (H295R cells [2]) | Effect on production of E2 (H295R cells [2]) | Effect on production of T (H295R cells [2]) | Effect on production of E1 (H295R/CYP21A2-KD cells) | Effect on production of E2 (H295R/CYP21A2-KD cells) | Effect on production of T (H295R/CYP21A2-KD cells) |
| --- | --- | --- | --- | --- | --- | --- | --- | --- |
| CC(C)C(=O)Nc1ccc([N+](=O)[O-])c(C(F)(F)F)c1 [Flutamide] | weak inducer of estradiol. | Negative for effects on testosterone; | – | – | – | – | – | – |
| C=C[C@@]1(C)CC(=O)[C@]2(O)[C@@]3(C)[C@@H](O)CCC(C)(C)[C@@H]3[C@H](O)[C@H](OC(C)=O)[C@@]2(C)O1 [Forskolin] | Strong inducer of T and E2 | Strong inducer of T and E2 | increases | increases | increases | increases | increases | increases |
